Drawing on article PMC10700342, this text covers binding for one substance.

Chains of the proteins cited; added tags and fusions are not shown.
UniProt P62330: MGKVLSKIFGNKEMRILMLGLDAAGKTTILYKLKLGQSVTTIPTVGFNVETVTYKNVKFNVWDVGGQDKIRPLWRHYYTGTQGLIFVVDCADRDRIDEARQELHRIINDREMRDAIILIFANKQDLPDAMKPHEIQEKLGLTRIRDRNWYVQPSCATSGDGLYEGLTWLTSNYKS
UniProt Q99418: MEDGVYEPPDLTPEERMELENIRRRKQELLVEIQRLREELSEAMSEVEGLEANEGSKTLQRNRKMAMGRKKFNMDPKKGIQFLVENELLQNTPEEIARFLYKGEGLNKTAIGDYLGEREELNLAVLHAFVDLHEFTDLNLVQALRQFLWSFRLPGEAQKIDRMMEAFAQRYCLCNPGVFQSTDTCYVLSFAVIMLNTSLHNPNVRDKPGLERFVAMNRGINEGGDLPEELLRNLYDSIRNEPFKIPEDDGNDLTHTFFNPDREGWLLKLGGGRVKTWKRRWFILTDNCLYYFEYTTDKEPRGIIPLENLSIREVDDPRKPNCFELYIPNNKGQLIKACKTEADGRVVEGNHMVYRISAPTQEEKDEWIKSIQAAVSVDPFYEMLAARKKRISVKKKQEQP

These are yes or no findings as the source states them, for the method shown. In cells and extracts the contact can be indirect. Some entries that bind do so weakly or less than the wild type.

This assay deals with ARF6, endogenous in HaCaT keratinocytes (human (endogenous in HaCaT)) (UniProt P62330). Kind of assay: co-IP; ARF6 immunoprecipitated with rabbit anti-ARF6 (D12G6) and Protein A sepharose from HaCaT lysates (1% Igepal, 150 mM NaCl, 4 °C) after 0, 30 or 60 min CAR or mCAR treatment; CYTH2 detected by western blot; non-immune rabbit IgG control. In general terms: In western blotting, separated proteins are transferred to a membrane and probed.

As for “CYTH2 (Cytohesin-2, ARNO), endogenous in HaCaT keratinocytes (from UniProt Q99418 1-400)”, the binding result is on record as “binds”.
